Laboratory results taken from publication PMC7179226, “Sulfonamide Inhibition Studies of the β-Class Carbonic Anhydrase CAS3 from the Filamentous Ascomycete Sordaria macrospora” (Molecules, 2020).

Sequences of proteins named here, by UniProt entry; tags and fusion partners are left off.
UniProt F7VU04, entry or part of it: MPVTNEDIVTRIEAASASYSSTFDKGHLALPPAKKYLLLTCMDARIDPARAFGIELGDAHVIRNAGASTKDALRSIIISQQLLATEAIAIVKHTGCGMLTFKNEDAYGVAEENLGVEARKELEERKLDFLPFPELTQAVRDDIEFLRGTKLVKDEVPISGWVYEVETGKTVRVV

Target: T1, CAS3 (Sordaria macrospora, UniProt F7VU04)
T1 construct: gene SMAC_03179; primers imply N-terminus (M)MPVTNEE and C-terminus KTVRVV-LE-His6
Test: stopped-flow CO2 hydration inhibition assay
Format: biochemical

Ki: 274 ± 14 nM
SMILES: CCN[C@H]1C[C@H](C)S(=O)(=O)c2sc(S(N)(=O)=O)cc21 [DZA, dorzolamide]
